This is an account of results in article PMC4457860, “In Vitro Interaction of the Housekeeping SecA1 with the Accessory SecA2 Protein of Mycobacterium tuberculosis” (PLoS ONE, 2015).

For this experiment, the target named is Mycobacterium tuberculosis SecA2 (unlabeled) (Mycobacterium tuberculosis strain H37Rv) (UniProt P9WGP3). As to the kind of experiment: SEC; Superdex 200 10/300 GL, 0.5 ml/min, 20 mM HEPES-KOH pH 7.5, 2 mM MgCl2, 50 mM arginine, high salt (300 mM KCl); protein 2-5 mg/ml; both purified. For orientation: Size exclusion chromatography separates by hydrodynamic size, large species first.

Results are given in words; binding and its absence hold for the method and conditions named. Sequences can lack the tags named with a protein.

B1: Mycobacterium tuberculosis SecA2 (unlabeled) (natural protein)
chain: MVPKTTRAQPGRLSSRFWRLLGASTEKNRSRSLADVTASAEYDKEAADLSDEKLRKAAGLLNLDDLAESADIPQFLAIAREAAERRTGLRPFDVQLLGALRMLAGDVIEMATGEGKTLAGAIAAAGYALAGRHVHVVTINDYLARRDAEWMGPLLDAMGLTVGWITADSTPDERRTAYDRDVTYASVNEIGFDVLRDQLVTDVNDLVSPNPDVALIDEADSVLVDEALVPLVLAGTTHRETPRLEIIRLVAELVGDKDADEYFATDSDNRNVHLTEHGARKVEKALGGIDLYSEEHVGTTLTEVNVALHAHVLLQRDVHYIVRDDAVHLINASRGRIAQLQRWPDGLQAAVEAKEGIETTETGEVLDTITVQALINRYATVCGMTGTALAAGEQLRQFYQLGVSPIPPNKPNIREDEADRVYITTAAKNDGIVEHITEVHQRGQPVLVGTRDVAESEELHERLVRRGVPAVVLNAKNDAEEARVIAEAGKYGAVTVSTQMAGRGTDIRLGGSDEADHDRVAELGGLHVVGTGRHHTERLDNQLRGRAGRQGDPGSSVFFSSWEDDVVAANLDHNKLPMATDENGRIVSPRTGSLLDHAQRVAEGRLLDVHANTWRYNQLIAQQRAIIVERRNTLLRTVTAREELAELAPKRYEELSDKVSEERLETICRQIMLYHLDRGWADHLAYLADIRESIHLRALGRQNPLDEFHRMAVDAFASLAADAIEAAQQTFETANVLDHEPGLDLSKLARPTSTWTYMVNDNPLSDDTLSALSLPGVFR
notes: No tag; molecular mass 85 kDa on SDS-PAGE; also called PIP152
B1: the binding result is “no binding (condition: high salt buffer (300 mM KCl))”.
